Results reported in publication doi:10.1101/2021.11.19.469163.
Read-outs that look alike come from different tables or passages of the source. Results are given in words; binding and its absence hold for the method and conditions named. For some of these results: Binding calls can cover weak binding; strength is not graded here. For some of these results: In cells and extracts the contact can be indirect. For some of these results: Tags and fused reporters may be left off the sequences shown.

T1: ARL3^Q70L::HA::YFP (C. reinhardtii) (UniProt A8ISN6)
T1 sequence: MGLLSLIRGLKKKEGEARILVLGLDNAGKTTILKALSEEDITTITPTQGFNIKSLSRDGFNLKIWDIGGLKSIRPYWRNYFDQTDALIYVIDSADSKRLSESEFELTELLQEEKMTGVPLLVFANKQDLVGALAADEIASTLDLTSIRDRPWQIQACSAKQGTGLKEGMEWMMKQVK

T2: ARL3::HA::YFP (C. reinhardtii) (UniProt A8ISN6)
T2 sequence: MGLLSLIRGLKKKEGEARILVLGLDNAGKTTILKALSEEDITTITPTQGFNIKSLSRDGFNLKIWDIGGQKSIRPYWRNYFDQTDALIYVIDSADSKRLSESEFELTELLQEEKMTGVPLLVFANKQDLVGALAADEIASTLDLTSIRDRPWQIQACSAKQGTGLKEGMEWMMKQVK

T3: ARL3^T30N::HA::YFP (C. reinhardtii) (UniProt A8ISN6)
T3 sequence: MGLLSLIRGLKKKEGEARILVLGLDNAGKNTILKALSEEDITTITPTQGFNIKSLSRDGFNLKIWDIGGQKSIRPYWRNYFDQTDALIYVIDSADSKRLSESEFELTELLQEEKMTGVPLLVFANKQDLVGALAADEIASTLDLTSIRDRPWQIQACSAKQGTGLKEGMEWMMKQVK


Experiments:
[1] = molecular target: T1, ARL3^Q70L::HA::YFP (C. reinhardtii); assay: co-IP
[2] = molecular target: T2, ARL3::HA::YFP (C. reinhardtii); assay: co-IP
[3] = molecular target: T1, ARL3^Q70L::HA::YFP (C. reinhardtii); assay: co-IP; remark: listed apart in the source
[4] = molecular target: T2, ARL3::HA::YFP (C. reinhardtii); assay: co-IP; remark: listed apart in the source
[5] = molecular target: T1, ARL3^Q70L::HA::YFP (C. reinhardtii); assay: co-IP; remark: listed apart in the source
[6] = molecular target: T3, ARL3^T30N::HA::YFP (C. reinhardtii); assay: co-IP
[7] = molecular target: T2, ARL3::HA::YFP (C. reinhardtii); assay: co-IP; remark: listed apart in the source
[8] = molecular target: MBP::BBS1 (C. reinhardtii); assay: pull-down
[9] = molecular target: MBP::BBS5 (C. reinhardtii); assay: pull-down

| Molecule | binding [1] | binding [2] | binding [3] | binding [4] | binding [5] | binding [6] | binding [7] | binding [8] | binding [9] |
| --- | --- | --- | --- | --- | --- | --- | --- | --- | --- |
| BBS1 | no binding (only in cell body extracts) | no binding (only in the presence of GDP) | no binding (only in cell body extracts) | binds | binds | no binding |  |  |  |
| BBS4 | no binding (only in cell body extracts) | no binding (only in the presence of GDP) | no binding (only in cell body extracts) | binds | binds | no binding |  |  |  |
| BBS5 | no binding (only in cell body extracts) | no binding (only in the presence of GDP) | no binding (only in cell body extracts) | binds | binds | no binding |  |  |  |
| BBS7 | no binding (only in cell body extracts) | no binding (only in the presence of GDP) | no binding (only in cell body extracts) | binds | binds | no binding |  |  |  |
| BBS8 | no binding (only in cell body extracts) | no binding (only in the presence of GDP) | no binding (only in cell body extracts) | binds | binds | no binding |  |  |  |
| IFT22 | no binding |  | no binding | no binding | no binding | no binding |  |  |  |
| IFT38 |  |  |  |  |  |  | no binding |  |  |
| IFT70 | no binding |  | no binding | no binding | no binding | no binding |  |  |  |
| phospholipase D (enzyme) |  |  |  | binds | binds | no binding | no binding (only in the presence of GDP) |  |  |
| ARL3^Q70L (bacterially expressed) (protein, UniProt A8ISN6 1-177) MGLLSLIRGLKKKEGEARILVLGLDNAGKTTILKALSEEDITTITPTQGFNIKSLSRDGFNLKIWDIGGLKSIRPYWRNYFDQTDALIYVIDSADSKRLSESEFELTELLQEEKMTGVPLLVFANKQDLVGALAADEIASTLDLTSIRDRPWQIQACSAKQGTGLKEGMEWMMKQVK |  |  |  |  |  |  |  | binds | binds |
| ARL3^T30N (bacterially expressed) (protein, UniProt A8ISN6 1-177) MGLLSLIRGLKKKEGEARILVLGLDNAGKNTILKALSEEDITTITPTQGFNIKSLSRDGFNLKIWDIGGQKSIRPYWRNYFDQTDALIYVIDSADSKRLSESEFELTELLQEEKMTGVPLLVFANKQDLVGALAADEIASTLDLTSIRDRPWQIQACSAKQGTGLKEGMEWMMKQVK |  |  |  |  |  |  |  | no binding | no binding |
